No constants are given. Whether binding was seen depends on the method and setting. Binding seen in cells or lysates may run through a third protein. A result given as binding can be weak or reduced; the word gives no strength.

Chains of the proteins cited; added tags and fusions are not shown. Lines headed by an entry give the natural chain unless they say otherwise; changes in a name come on top.
UniProt Q13642: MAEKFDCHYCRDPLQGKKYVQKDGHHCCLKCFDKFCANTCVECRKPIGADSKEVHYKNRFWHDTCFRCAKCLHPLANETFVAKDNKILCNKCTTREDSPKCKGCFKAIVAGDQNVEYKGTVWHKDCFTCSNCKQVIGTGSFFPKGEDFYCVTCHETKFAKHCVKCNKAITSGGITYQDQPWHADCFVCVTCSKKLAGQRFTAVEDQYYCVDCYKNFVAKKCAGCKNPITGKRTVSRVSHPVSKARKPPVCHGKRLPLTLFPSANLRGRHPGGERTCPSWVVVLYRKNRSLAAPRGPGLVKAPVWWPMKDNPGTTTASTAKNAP
UniProt P31260: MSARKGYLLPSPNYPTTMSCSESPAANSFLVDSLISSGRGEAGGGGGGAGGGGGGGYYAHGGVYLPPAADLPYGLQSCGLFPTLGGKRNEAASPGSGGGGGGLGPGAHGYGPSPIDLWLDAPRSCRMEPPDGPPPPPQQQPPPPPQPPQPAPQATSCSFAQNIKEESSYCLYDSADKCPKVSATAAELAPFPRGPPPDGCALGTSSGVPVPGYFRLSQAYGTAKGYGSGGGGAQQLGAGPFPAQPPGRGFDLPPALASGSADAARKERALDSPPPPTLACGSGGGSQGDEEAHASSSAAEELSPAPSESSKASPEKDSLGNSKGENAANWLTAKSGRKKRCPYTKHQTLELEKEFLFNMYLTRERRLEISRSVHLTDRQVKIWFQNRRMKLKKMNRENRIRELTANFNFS

For assay [1], the target named is Flag-FHL1 (UniProt Q13642). Kind of assay: co-IP; HEK293T cells cotransfected for 48 h; whole-cell lysate (500 ug) on Myc antibody-conjugated or Flag antibody-conjugated beads overnight at 4 °C; blots with anti-Flag M2 and anti-Myc.
The target of assay [2] is endogenous HOXA10 (human (endogenous in Ishikawa)) (UniProt P31260). Kind of assay: co-IP; Ishikawa whole-cell lysate (1 mg), anti-HOXA10 immunoprecipitation overnight at 4 °C, Protein A/G PLUS-Sepharose beads; goat IgG as negative control.

On to Myc-HOXA10 (from UniProt P31260 1-410), for which the binding result in assay [1] is listed as “binds”. For the substance endogenous FHL1 (from UniProt Q13642-1), the binding result in assay [2] was “binds”.

The values are drawn from paper PMC9684570.
